Values from PubChem BioAssay AID1259308 (NCATS, 2017)

Screen: 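Genes whose loss raises luciferase production in HEK293 cells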 (primary screen)
System: human HEK293 embryonic kidney cells stably expressing firefly luciferase (HEK-CMV-Luc2-Hygro)
Reagents: single siRNA against human genes, 0.8 pmol siRNA per well
Duration: 72 h
Read-out: 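Luciferase light (ONE-Glo) measured on one replicate plate set and viability (CellTiter-Glo) on the other, scaled to a negative control siRNA, with robust z-scores and luciferase per cell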
Scale: total luciferase, z-score and total luciferase, % of control: higher = more reporter protein produced
Hit rule: 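Active when the median/MAD z-score for overall luciferase is greater than 3; a gene was taken forward for validation with new siRNAs if at least two of its three siRNAs passed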
Meaning of the calls: active = raised luciferase; inactive = no rise
Shown is a random part of about 59,000 reagents tested. About 1,510 of all reagents (2.6%) count as active. 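Calls use total luciferase alone and ignore viability, so some active siRNAs may act by altering cell number.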 Entries without a mark were called inactive. Reagents against one gene are numbered here. Not all columns of the deposit are shown.

no.	target	siRNA no.	total luciferase, z-score	total luciferase, % of control
1	SPI1 (GeneID 6688)	1	-1.07	60.6
2	SPI1 (GeneID 6688)	2	0.867	99.1
3	SPI1 (GeneID 6688)	3	-1.41	53.9
4	LOC643339 (GeneID 643339)	1	0.196	85.8
5	LOC643339 (GeneID 643339)	2	-0.534	71.3
6	LOC643339 (GeneID 643339)	3	0.0962	83.8
7	CCAR1 (GeneID 55749)	1	0.475	91.3
8	CCAR1 (GeneID 55749)	2	-0.278	76.4
9	CCAR1 (GeneID 55749)	3	-1.29	56.2
10	SPATA45 (GeneID 149643)	1	-0.76	66.8
11	SPATA45 (GeneID 149643)	2	0.382	89.5
12	SPATA45 (GeneID 149643)	3	0.483	91.5
13	MSTO1 (GeneID 55154)	1	-0.13	79.3
14	MSTO1 (GeneID 55154)	2	1.17	105
15	MSTO1 (GeneID 55154)	3	-0.68	68.4
16	VPS9D1 (GeneID 9605)	1	-0.601	69.9
17	VPS9D1 (GeneID 9605)	2	0.407	90
18	VPS9D1 (GeneID 9605)	3	0.388	89.6
19	RAD9B (GeneID 144715)	1	-0.559	70.8
20	RAD9B (GeneID 144715)	2	-0.504	71.9
21	RAD9B (GeneID 144715)	3	-0.339	75.1
22	PLEKHJ1 (GeneID 55111)	1	-0.491	72.1
23	PLEKHJ1 (GeneID 55111)	2	2.39	129
24	PLEKHJ1 (GeneID 55111)	3	0.529	92.4
25	GRAMD1C (GeneID 54762)	1	-0.816	65.7
26	GRAMD1C (GeneID 54762)	2	4.02 (active)	162
27	GRAMD1C (GeneID 54762)	3	0.439	90.6
28	ATOH1 (GeneID 474)	1	-1.37	54.7
29	ATOH1 (GeneID 474)	2	-1.06	60.9
30	ATOH1 (GeneID 474)	3	-0.863	64.7
31	LINC01630 (GeneID 100287225)	1	1.33	108
32	LINC01630 (GeneID 100287225)	2	-0.775	66.5
33	LINC01630 (GeneID 100287225)	3	0.697	95.7
34	CASK (GeneID 8573)	1	0.199	85.8
35	CASK (GeneID 8573)	2	-0.208	77.7
36	CASK (GeneID 8573)	3	0.905	99.9
37	GM2A (GeneID 2760)	1	-0.462	72.7
38	GM2A (GeneID 2760)	2	-0.98	62.4
39	GM2A (GeneID 2760)	3	-2.02	41.6
40	DSCR10 (GeneID 259234)	1	-0.55	70.9
41	DSCR10 (GeneID 259234)	2	0.117	84.2
42	DSCR10 (GeneID 259234)	3	-0.699	68
43	CENPI (GeneID 2491)	1	0.105	84
44	CENPI (GeneID 2491)	2	0.0596	83.1
45	CENPI (GeneID 2491)	3	-2.24	37.3
46	ING5 (GeneID 84289)	1	-1.6	50
47	ING5 (GeneID 84289)	2	-1.77	46.7
48	ING5 (GeneID 84289)	3	0.964	101
49	PDCL2 (GeneID 132954)	1	-0.781	66.3
50	PDCL2 (GeneID 132954)	2	0.696	95.7
51	PDCL2 (GeneID 132954)	3	1.33	108
52	IFT52 (GeneID 51098)	1	0.556	92.9
53	IFT52 (GeneID 51098)	2	-0.206	77.8
54	IFT52 (GeneID 51098)	3	0.604	93.9
55	ZNF593 (GeneID 51042)	1	-0.652	68.9
56	ZNF593 (GeneID 51042)	2	0.137	84.6
57	ZNF593 (GeneID 51042)	3	0.013	82.1

Called active, among the entries above:
target	siRNA no.	total luciferase, z-score	total luciferase, % of control
GRAMD1C (GeneID 54762)	2	4.02 (active)	162
